Reference: doi:10.1101/2024.09.03.611033
No constants are given. Whether binding was seen depends on the method and setting. In cells and extracts the contact can be indirect. Some entries that bind do so weakly or less than the wild type. Sequences can lack the tags named with a protein.

Protein sequences, listed by entry. Tags and fused reporters are not part of them.
UniProt Q13148: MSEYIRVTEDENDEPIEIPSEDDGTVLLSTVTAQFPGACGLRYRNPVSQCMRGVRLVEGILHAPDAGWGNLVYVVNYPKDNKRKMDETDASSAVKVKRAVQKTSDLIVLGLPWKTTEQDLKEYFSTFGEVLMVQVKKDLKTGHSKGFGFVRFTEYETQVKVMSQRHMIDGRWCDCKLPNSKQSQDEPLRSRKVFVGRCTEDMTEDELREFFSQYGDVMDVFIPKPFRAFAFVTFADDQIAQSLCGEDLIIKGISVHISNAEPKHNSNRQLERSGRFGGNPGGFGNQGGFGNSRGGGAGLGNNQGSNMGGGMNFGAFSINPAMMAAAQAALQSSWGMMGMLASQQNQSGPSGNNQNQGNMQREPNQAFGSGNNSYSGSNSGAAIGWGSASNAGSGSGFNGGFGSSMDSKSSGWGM

Biological target: T1, GFP-tagged human gigaxonin (human) (UniProt Q9H2C0)
T1 sequence: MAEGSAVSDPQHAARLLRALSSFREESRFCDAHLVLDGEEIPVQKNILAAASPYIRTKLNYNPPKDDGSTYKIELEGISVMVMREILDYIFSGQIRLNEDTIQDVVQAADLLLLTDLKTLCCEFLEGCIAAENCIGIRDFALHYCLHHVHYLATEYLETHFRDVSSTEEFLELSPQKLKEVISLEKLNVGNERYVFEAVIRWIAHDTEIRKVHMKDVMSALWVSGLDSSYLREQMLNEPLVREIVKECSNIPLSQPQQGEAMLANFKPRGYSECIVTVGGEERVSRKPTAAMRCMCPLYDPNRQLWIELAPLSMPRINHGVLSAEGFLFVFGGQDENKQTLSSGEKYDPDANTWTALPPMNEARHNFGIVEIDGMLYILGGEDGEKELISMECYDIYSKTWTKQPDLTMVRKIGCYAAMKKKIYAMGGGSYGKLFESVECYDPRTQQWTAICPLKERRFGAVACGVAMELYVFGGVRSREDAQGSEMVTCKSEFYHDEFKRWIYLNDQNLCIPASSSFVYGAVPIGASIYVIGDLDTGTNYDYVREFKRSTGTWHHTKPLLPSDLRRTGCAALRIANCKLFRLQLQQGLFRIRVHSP
Experiment: co-IP; GFP-Gig from TritonX-100-soluble HEK293 lysate captured on TurboGFP-Trap magnetic agarose beads overnight at 4°C; immunoblot for PCBP2 and TDP-43

binding: binds
Substance: TAR DNA-binding protein 43 (from UniProt Q13148 1-414)
